Measurements as given in PubChem BioAssay AID2517 (National Center for Advancing Translational Sciences (NCATS), 2010).
Where “and” joins values, the source holds several entries; their conditions need not be identical. Identical values can stand only once. Out of some 350,000 compounds screened, about 1,200 (0.34%) were called active. Inconclusive means that the source gave no clear call. Such entries were picked first, then a sample of the others. The call rests on the fitted dose curve; in most records, active means well fitted inhibition curve with a large enough effect; inconclusive means small, poorly fitted or top-dose-only effect; inactive means no such curve, though single readings can be large or run the other way. Potencies of inconclusive entries are doubtful fits and often do not repeat.

By UniProt entry, the sequences of proteins in these tests, tags left out.
UniProt P27695, whole entry, looked up: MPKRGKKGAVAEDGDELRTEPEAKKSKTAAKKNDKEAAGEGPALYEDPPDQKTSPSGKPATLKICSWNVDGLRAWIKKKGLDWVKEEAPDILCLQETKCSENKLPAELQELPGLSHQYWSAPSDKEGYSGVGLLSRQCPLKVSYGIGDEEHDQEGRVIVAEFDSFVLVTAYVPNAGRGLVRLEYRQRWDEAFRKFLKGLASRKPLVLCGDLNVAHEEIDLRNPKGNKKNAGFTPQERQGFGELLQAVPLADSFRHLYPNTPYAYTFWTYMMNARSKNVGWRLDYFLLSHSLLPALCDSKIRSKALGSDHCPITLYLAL

Each compound was assayed against DNA repair nuclease/redox regulator APEX1 (Homo sapiens) (UniProt P27695) (assay: qHTS Assay for Inhibitors of the Human Apurinic/apyrimidinic Endonuclease 1 (APE1)). Conditions: recombinant APE1, TAMRA/BHQ-2 abasic DNA cleavage fluorescence; activity change, negative = inhibition: at 65.8 µM (top of the series).
How it was run: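 APE1 at 0.75 nM preincubated 15 min at room temperature with compound. Reaction then started with 50 nM double-stranded THF-abasic substrate labelled with TAMRA/BHQ-2, and 525/598 nm fluorescence read kinetically. Activity taken as third-minus-first read difference, normalized to DMSO and NSC13755 controls.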
Further: nearly all actives have a fitted effect of over 55% in size.
Potency means the concentration at half of the fitted maximal effect.
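Wherever activity change, negative = inhibition is given: plate controls were vehicle for no effect and reference inhibitor for full effect.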

SMILES	Potency	activity change, negative = inhibition
CCCCCCCCCCCCCCCC(N)=O	inconclusive: 7.08 µM [inhibitor, single point]	
CC1(C)CC(NS(=O)(=O)OCC(Cl)(Cl)Cl)c2cc(C#N)ccc2O1 (stereo unspecified)		inactive: -7.44%
Cc1ccc2sc(NC(=O)c3ccc(N4C(=O)CCC4=O)cc3)nc2c1C	inconclusive: 5.01 µM [inhibitor, single point]	
C=C(C(=O)O)C1CCC2(C)CCCC(C)(O)C2C1 (stereo unspecified)	inconclusive: 31.6 µM [inhibitor, partial curve]	
COc1ccc(CCNC(=O)Cn2ccc3c(OC)cccc3c2=O)cc1OC	inconclusive: 3.16 µM [inhibitor, single point]	
Cc1ccc(S(=O)(=O)Nc2ccccc2-c2ccccc2NS(=O)(=O)c2ccc(C)cc2)cc1	inconclusive: 6.31 µM [inhibitor, single point]	
CCOC(=O)CNC(=O)Nc1nnc(-c2ccc(OCC)cc2)o1		inactive: -1.91%
COc1ccc(CCNC(=O)CSc2cn(Cc3ccccc3)c3ccccc23)cc1OC	inconclusive: 3.16 µM [inhibitor, partial curve]	
CNC(=O)c1ccsc1NC(=O)CN1C(=O)CCC1=O	inconclusive: 3.16 µM [inhibitor, single point]	
O=C(CSc1ncccn1)NC(=O)NCc1ccco1	inconclusive: 25.1 µM [inhibitor, single point]	
NC(=O)c1cccc(C[C@H](C(=O)O)N2C(=O)c3ccc(C(=O)O)cc3C2=O)c1	inconclusive: 39.8 µM [inhibitor, single point]	
O=C(CCl)N1N=C(c2ccco2)CC1c1ccco1 (stereo unspecified)		inactive: -14%
O=C1CCCC2=C1C(c1ccc(O)c(O)c1)c1c(ccc3ncccc13)N2 (stereo unspecified)	active: 10 µM	
CCC(C)(C)NC(=O)/C=C/c1ccc(OC)c(S(=O)(=O)N2CCOCC2)c1	inconclusive: 11.2 µM [inhibitor, partial curve]	
COc1cc(-c2ccc(Nc3ccccc3C(=O)O)c(OC)c2)ccc1Nc1ccccc1C(=O)O		inactive: -11.3%
COc1ccccc1-n1c(C)cc(/C=C2\C(=N)N3N=C(CC(=O)N4CCOCC4)SC3=NC2=O)c1C		inactive: 7.1%
Cc1cc2oc(C(=O)Nc3ccc(S(=O)(=O)Nc4ncccn4)cc3)c(C)c2cc1Cl	inconclusive: 33.6 µM [inhibitor, single point]	
COCC1CCN(Cc2c(C(=O)N3CCc4ccccc4C3)nc3ccc(Cl)cn23)C1 (stereo unspecified)		inactive: -4.74%
CN(C(=O)c1ccc(NC(=O)Cc2ccc(NC(=O)C3CCCN(C(=O)c4ccccc4)C3)cc2)cc1)C1CC1 (stereo unspecified)		inactive: 23.2%
O=C(NCC(=O)N(Cc1cccs1)C(C(=O)NC1CCCC1)c1cccnc1)c1ccco1 (stereo unspecified)	inconclusive: 44.7 µM [inhibitor, single point]	
O=c1c(=Nc2ccccc2O)c(=O)c2ccccc12	inconclusive: 17.8 µM [inhibitor, single point]	

SMILES	Potency	activity change, negative = inhibition
COc1cc(C)c2c(c1C=O)Oc1c(c(C)c(O)c3c1C(O)OC3=O)OC2=O (stereo unspecified)	active: 31.6 µM and active: 8.91 µM and active: 12.6 µM	
COc1ccc(/C=N/Nc2nc3ccccc3[nH]2)c(OC)c1OC	inconclusive: 0.0891 µM [inhibitor, full curve, poor fit]	
CC(=O)c1ccc(/C=C/c2nc3ccccc3n2C)o1	inconclusive: 44.7 µM [inhibitor, single point]	
Cc1ccc2nc(-c3ccccc3)cn2c1		inactive: 0.52%
C=CCN=c1scc(-c2ccc3c(c2)NC(=O)CO3)n1/N=C(\C)c1ccccn1	inconclusive: 10 µM [inhibitor, partial curve, poor fit]	
C=CC1=C2C=C(C3CC3)N(CCN3CCOCC3)C=C2C(=O)C(C)(OC(=O)c2ccco2)C1=O (stereo unspecified)		inactive: 3.26% [at 12.4 µM]
C=CCNC(=O)C1CC(=O)N(c2ccc(OCC(=O)Nc3ccc(Cl)c(C(F)(F)F)c3)cc2)C1 (stereo unspecified)		inactive: -2.5%
Cc1sc(NC(=O)C(C)C)c(C(=O)Nc2ccccc2)c1C	inconclusive: 7.08 µM [inhibitor, partial curve, poor fit]	
COc1ccc(NS(=O)(=O)c2cc(NC(=O)/C=C/c3cc(OC)ccc3OC)ccc2N2CCCCC2)cc1	inconclusive: 50.1 µM [inhibitor, partial curve, poor fit]	
Cc1ccccc1OCc1nnc(SCC(=O)Nc2ccc3c(c2)OCO3)n1C	inconclusive: 12.6 µM [inhibitor, partial curve]	
COc1ccc(NC(=O)CSc2nc(NS(=O)(=O)c3ccccc3)cc(=O)[nH]2)cc1	inconclusive: 35.5 µM [inhibitor, single point]	
COc1ccccc1Nc1nc(N)nc(CSc2nncn2C)n1	inconclusive: 50.1 µM [inhibitor, partial curve, poor fit]	
Cc1ccc(Cn2nnc3c(=O)n(CC(=O)NCc4ccccc4)cnc32)cc1	inconclusive: 44.7 µM [inhibitor, single point]	
CCOC(=O)C1=C(C)N=c2s/c(=C/c3ccc(OCC(=O)O)cc3)c(=O)n2C1c1ccc(SC)cc1 (stereo unspecified)	active: 7.52 µM	
CCOC(=O)C1=C(C)OC2(O)c3ccccc3C(=O)C12O (stereo unspecified)	inconclusive: 12.6 µM [inhibitor, partial curve]	
CC(C)Oc1ccc(CNC(=O)CC(c2ccccc2)c2cc(Cl)ccc2O)cc1 (stereo unspecified)	inconclusive: 35.5 µM [inhibitor, single point]	
O=C(O)CC/C(=C\c1ccc(N2CCCC2)c([N+](=O)[O-])c1)c1nc2ccccc2s1	inconclusive: 35.5 µM [inhibitor, single point]	
CC(=O)c1c(C)[nH]c(C(=O)OCC(=O)Nc2sc3c(c2C#N)CCCC3)c1C	inconclusive: 0.794 µM [inhibitor, full curve, poor fit]	
COCCCNC(=O)CSc1nc2ccccc2c(=O)n1Cc1ccc2c(c1)OCO2	inconclusive: 0.447 µM [inhibitor, full curve]	
CCC(=O)Nc1c2c(nn1-c1cccc(Cl)c1)CSC2	inconclusive: 7.94 µM [inhibitor, single point]	
